The values below come from publication PMC6988980.

By UniProt entry, the sequences of proteins in these tests, tags left out.
UniProt Q9BYW2: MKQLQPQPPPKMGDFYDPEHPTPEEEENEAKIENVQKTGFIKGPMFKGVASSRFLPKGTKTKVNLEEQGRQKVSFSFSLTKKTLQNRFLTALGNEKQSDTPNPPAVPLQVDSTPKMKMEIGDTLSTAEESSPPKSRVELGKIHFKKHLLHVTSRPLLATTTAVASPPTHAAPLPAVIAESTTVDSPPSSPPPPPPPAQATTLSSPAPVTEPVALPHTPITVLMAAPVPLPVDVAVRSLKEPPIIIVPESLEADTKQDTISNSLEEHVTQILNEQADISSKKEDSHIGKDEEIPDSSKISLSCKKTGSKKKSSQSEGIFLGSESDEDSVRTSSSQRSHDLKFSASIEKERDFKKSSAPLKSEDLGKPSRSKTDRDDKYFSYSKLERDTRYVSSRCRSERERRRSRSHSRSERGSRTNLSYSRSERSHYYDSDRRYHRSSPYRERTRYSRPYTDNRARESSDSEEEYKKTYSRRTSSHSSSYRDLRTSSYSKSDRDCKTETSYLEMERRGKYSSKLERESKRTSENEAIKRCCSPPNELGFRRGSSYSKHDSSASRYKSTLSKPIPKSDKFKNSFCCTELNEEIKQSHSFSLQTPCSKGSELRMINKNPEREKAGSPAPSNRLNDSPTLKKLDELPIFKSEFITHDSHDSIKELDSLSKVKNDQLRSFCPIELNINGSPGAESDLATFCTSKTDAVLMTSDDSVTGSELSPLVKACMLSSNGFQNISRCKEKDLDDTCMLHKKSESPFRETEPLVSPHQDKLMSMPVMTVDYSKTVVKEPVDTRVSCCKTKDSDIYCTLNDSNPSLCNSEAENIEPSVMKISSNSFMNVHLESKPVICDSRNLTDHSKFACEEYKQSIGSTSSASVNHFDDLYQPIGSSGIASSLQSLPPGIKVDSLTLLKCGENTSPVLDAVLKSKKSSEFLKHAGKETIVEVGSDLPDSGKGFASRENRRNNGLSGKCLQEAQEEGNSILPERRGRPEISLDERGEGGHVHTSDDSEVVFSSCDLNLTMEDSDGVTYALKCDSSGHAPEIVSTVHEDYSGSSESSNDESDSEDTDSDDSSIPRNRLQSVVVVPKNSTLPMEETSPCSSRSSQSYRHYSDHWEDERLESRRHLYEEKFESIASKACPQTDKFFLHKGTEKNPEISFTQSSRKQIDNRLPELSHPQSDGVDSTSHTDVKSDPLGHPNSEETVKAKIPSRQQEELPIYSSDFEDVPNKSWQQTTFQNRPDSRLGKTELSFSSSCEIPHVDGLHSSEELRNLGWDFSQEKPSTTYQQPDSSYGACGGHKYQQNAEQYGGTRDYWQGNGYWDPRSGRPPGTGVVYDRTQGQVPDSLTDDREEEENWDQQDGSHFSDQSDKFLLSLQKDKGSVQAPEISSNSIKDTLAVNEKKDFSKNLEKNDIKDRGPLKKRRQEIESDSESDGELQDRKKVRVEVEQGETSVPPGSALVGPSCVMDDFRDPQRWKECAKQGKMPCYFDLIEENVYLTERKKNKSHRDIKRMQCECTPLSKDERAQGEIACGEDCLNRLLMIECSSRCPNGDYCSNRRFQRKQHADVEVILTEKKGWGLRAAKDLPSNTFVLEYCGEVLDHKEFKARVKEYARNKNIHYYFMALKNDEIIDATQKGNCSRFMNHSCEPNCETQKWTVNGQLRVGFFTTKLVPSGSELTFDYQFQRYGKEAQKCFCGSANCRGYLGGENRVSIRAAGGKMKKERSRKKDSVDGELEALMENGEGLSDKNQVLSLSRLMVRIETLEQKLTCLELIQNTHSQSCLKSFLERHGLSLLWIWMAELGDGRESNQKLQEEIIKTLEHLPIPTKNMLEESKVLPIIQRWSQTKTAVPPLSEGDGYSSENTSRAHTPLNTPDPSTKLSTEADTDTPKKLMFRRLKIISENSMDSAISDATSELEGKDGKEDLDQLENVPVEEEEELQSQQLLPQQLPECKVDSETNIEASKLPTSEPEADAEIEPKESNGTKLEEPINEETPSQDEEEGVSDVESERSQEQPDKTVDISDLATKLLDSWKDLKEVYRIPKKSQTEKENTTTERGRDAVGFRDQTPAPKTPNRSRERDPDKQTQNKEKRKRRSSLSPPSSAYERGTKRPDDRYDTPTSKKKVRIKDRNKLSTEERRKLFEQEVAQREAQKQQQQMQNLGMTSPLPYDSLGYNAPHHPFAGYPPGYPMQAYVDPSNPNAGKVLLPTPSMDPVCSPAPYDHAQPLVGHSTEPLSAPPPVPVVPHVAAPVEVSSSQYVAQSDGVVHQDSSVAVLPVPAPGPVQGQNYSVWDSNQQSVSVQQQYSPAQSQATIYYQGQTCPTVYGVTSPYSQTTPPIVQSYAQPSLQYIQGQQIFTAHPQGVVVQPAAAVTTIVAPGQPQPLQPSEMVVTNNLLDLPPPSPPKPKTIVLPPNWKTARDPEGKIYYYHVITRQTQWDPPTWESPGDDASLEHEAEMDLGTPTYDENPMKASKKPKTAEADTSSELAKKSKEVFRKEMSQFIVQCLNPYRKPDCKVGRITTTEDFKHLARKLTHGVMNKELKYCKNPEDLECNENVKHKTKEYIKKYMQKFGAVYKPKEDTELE

For experiment [1], the target named is SETD2 (SET domain containing 2), from SETD2 expression plasmid (UniProt Q9BYW2). Put plainly: co-IP; PLC/PRF/5 cells co-transfected with SETD2 and PPM1A plasmids, without TGF-β1 treatment.
Experiment [2] shares this target. Put plainly: co-IP; MALAT1 depleted or control PLC/PRF/5 cells transfected with flag-Smad2/3, PPM1A or SETD2 plasmids as indicated in the panels, TGF-β1 for 1-2 hours; IP and Western blotting.
Experiment [3] has the same target. The experiment is described as follows: co-IP; PLC/PRF/5 cells co-transfected with SETD2 and PPM1A plasmids, with TGF-β1 treatment.

No constants are given. Whether binding was seen depends on the method and setting. In cells and extracts the contact can be indirect. Some results given as binding are weak or reduced against the parent protein; the word gives no strength.

B1: PPM1A (protein phosphatase, Mg2+/Mn2+ dependent, 1A), from PPM1A expression plasmid (enzyme, UniProt P35813 1-382)
chain: MGAFLDKPKMEKHNAQGQGNGLRYGLSSMQGWRVEMEDAHTAVIGLPSGLESWSFFAVYDGHAGSQVAKYCCEHLLDHITNNQDFKGSAGAPSVENVKNGIRTGFLEIDEHMRVMSEKKHGADRSGSTAVGVLISPQHTYFINCGDSRGLLCRNRKVHFFTQDHKPSNPLEKERIQNAGGSVMIQRVNGSLAVSRALGDFDYKCVHGKGPTEQLVSPEPEVHDIERSEEDDQFIILACDGIWDVMGNEELCDFVRSRLEVTDDLEKVCNEVVDTCLYKGSRDNMSVILICFPNAPKVSPEAVKKEAELDKYLECRVEEIIKKQGEGVPDLVHVMRTLASENIPSLPPGGELASKRNVIEAVYNRLNPYKNDDTDSTSTDDMW
On to B1, for which the binding entry in experiment [1] was “no binding (condition: without TGF-β1 treatment)”; in experiment [2] it was “binds”; in experiment [3] it was “binds”.
